Source: PubChem BioAssay AID504791 (Drosophila RNAi Screening Center, 2011)
The screen tested about 23,000 reagents; below is an unselected part of those that have a named target and a result. In the full data, 199 (0.86%) are marked active. 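Plate-scaled ratios behind the calls are not deposited; printed light signals are raw; many rows marked increased or decreased are still called inactive.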 Not stated in the record: the direction of the score.

Test: 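Genes whose knock-down strengthens or weakens small-RNA reporter silencing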 (primary screen)
System: Drosophila S2-derived reporter cells
Reagent: long dsRNA against Drosophila genes, about 150-250 ng dsRNA per well (siRNA assay); about 80-120 ng (miRNA assay)
Timing: about 5 days (siRNA assay); about 4 days (miRNA assay)
Conditions: copper sulfate induction of reporters: 25 µM (siRNA assay); 200 mM stated (miRNA assay), 1-2 days before reading
Detection: 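Dual luciferase assay: Renilla to firefly signal ratio in each well, scaled to the mean ratio of its plate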
Units: stable assay Renilla, run 1 in luminescence; stable assay firefly, run 1 in luminescence
Call rule: 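First-pass picks had plate-scaled ratios over 1.5 for the siRNA assay, over 1.6 for the miRNA assay, or under 0.6; two distinct dsRNAs had to score alike on retest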

What did the screen give for CG34001 [DRSC09042]?
stable assay Renilla, run 1: 4235; stable assay firefly, run 1: 3.57e5; activity call: inactive

Which result is listed for snf (sans fille) [DRSC18835]?
stable assay Renilla, run 1: 17354; stable assay firefly, run 1: 7.88e5; activity call: inactive

With CG7264 [DRSC10793], how do the results read?
stable assay Renilla, run 1: 6051; stable assay firefly, run 1: 3.56e5; activity call: inactive

What did the screen give for CG5913 [DRSC15916]?
stable assay Renilla, run 1: 6627; stable assay firefly, run 1: 3.91e5; activity call: inactive

For BaraB (Baramicin B) [DRSC06420], what does the deposit list?
stable assay Renilla, run 1: 6247; stable assay firefly, run 1: 3.91e5; activity call: inactive

With lncRNA:CR42862 (long non-coding RNA:CR42862) [DRSC08348], what does the deposit list?
stable assay Renilla, run 1: 7550; stable assay firefly, run 1: 4.21e5; activity call: inactive

Which result is listed for Cdep (Chondrocyte-derived ezrin-like domain containing protein) [DRSC12028]?
stable assay Renilla, run 1: 5634; stable assay firefly, run 1: 4.71e5; activity call: inactive

How did the screen score Cdep (Chondrocyte-derived ezrin-like domain containing protein) [DRSC12220]?
stable assay Renilla, run 1: 7720; stable assay firefly, run 1: 4.57e5; activity call: inactive

For Cdep (Chondrocyte-derived ezrin-like domain containing protein) [DRSC12291], what was measured?
stable assay Renilla, run 1: 8067; stable assay firefly, run 1: 4.04e5; activity call: inactive

What did the screen give for CG14564 [DRSC11725]?
stable assay Renilla, run 1: 6767; stable assay firefly, run 1: 3.25e5; activity call: inactive

With CG14564 [DRSC22388], how do the results read?
stable siRNA reporter change: reporter ratio lowered past the hit cutoff; stable assay Renilla, run 1: 1752; stable assay firefly, run 1: 3.30e5; activity call: inactive

What is on record for Obp58b (Odorant-binding protein 58b) [DRSC04161]?
stable assay Renilla, run 1: 6351; stable assay firefly, run 1: 4.13e5; activity call: inactive

What is on record for Eaat1 (Excitatory amino acid transporter 1) [DRSC03321]?
stable assay Renilla, run 1: 8518; stable assay firefly, run 1: 5.40e5; activity call: inactive

For Gr9a (Gustatory receptor 9a) [DRSC22506], what does the deposit list?
stable assay Renilla, run 1: 3628; stable assay firefly, run 1: 3.46e5; activity call: inactive

What did the screen give for PPO1 (Prophenoloxidase 1) [DRSC05929]?
stable assay Renilla, run 1: 11649; stable assay firefly, run 1: 4.11e5; activity call: inactive

What is on record for pll (pelle) [DRSC17026]?
stable assay Renilla, run 1: 6231; stable assay firefly, run 1: 3.96e5; activity call: inactive

For OstDelta (Oligosaccharide transferase Delta subunit) [DRSC06980], what does the deposit list?
stable assay Renilla, run 1: 8745; stable assay firefly, run 1: 3.43e5; activity call: inactive

Laid out differently: 3 of the entries above.
{"gene knocked down": "CG5913", "amplicon": "DRSC15916", "stable assay Renilla, run 1": 6627, "stable assay firefly, run 1": 3.91e5, "activity call": "inactive"}
{"gene knocked down": "BaraB (Baramicin B)", "amplicon": "DRSC06420", "stable assay Renilla, run 1": 6247, "stable assay firefly, run 1": 3.91e5, "activity call": "inactive"}
{"gene knocked down": "lncRNA:CR42862 (long non-coding RNA:CR42862)", "amplicon": "DRSC08348", "stable assay Renilla, run 1": 7550, "stable assay firefly, run 1": 4.21e5, "activity call": "inactive"}

Additional results follow:
For papi [DRSC00693], how do the results read?
stable assay Renilla, run 1: 14413; stable assay firefly, run 1: 8.09e5; activity call: inactive

How did the screen score Nsf2 (N-ethylmaleimide-sensitive factor 2) [DRSC22104]?
stable assay Renilla, run 1: 8813; stable assay firefly, run 1: 5.56e5; activity call: inactive

How did the screen score Gnpnat (Glucosamine-phosphate N-acetyltransferase) [DRSC15405]?
stable assay Renilla, run 1: 10126; stable assay firefly, run 1: 5.71e5; activity call: inactive

Which result is listed for CG32713 [DRSC22766]?
stable assay Renilla, run 1: 4383; stable assay firefly, run 1: 4.05e5; activity call: inactive

What did the screen give for CG15450 [DRSC20522]?
stable assay Renilla, run 1: 4199; stable assay firefly, run 1: 3.04e5; activity call: inactive

How did the screen score CG17544 [DRSC02624]?
stable assay Renilla, run 1: 68924; stable assay firefly, run 1: 1.83e6; activity call: inactive

For CG13471 [DRSC10015], how do the results read?
stable assay Renilla, run 1: 7786; stable assay firefly, run 1: 4.00e5; activity call: inactive

For Dpp10 (Dipeptidyl peptidase 10) [DRSC00942], what does the deposit list?
stable assay Renilla, run 1: 5255; stable assay firefly, run 1: 4.29e5; activity call: inactive

How did the screen score Dpp10 (Dipeptidyl peptidase 10) [DRSC02139]?
stable assay Renilla, run 1: 6995; stable assay firefly, run 1: 4.11e5; activity call: inactive

With unk (unkempt) [DRSC17093], what was measured?
stable assay Renilla, run 1: 6975; stable assay firefly, run 1: 3.46e5; activity call: inactive

For Fum3 (Fumarase 3) [DRSC10592], what was measured?
stable assay Renilla, run 1: 6411; stable assay firefly, run 1: 3.16e5; activity call: inactive
